According to article PMC5963807:
No constants are given. Whether binding was seen depends on the method and setting. Binding can be weak; no strength is given. Where a sequence is shown, tags or fusion partners need not be part of it.

Biological target: CIRV p36 replication protein (split-ubiquitin bait) (carnation Italian ringspot virus)
Experiment: two-hybrid; split-ubiquitin-based membrane yeast two-hybrid assay (MYTH); bait co-expressed with NubG-tagged prey in yeast; empty prey vector (NubG) as negative control

B1: Ufe1p, N-terminally tagged split-ubiquitin prey (protein, UniProt P41834 1-346)
chain: MMSDLTPIFRKYVAVIDDARNEQNGIDDHVERKQEDFGNSNETCEMFRDSFIKECARLLKFLVELNKVIKQIEKNYLDDFNMSDAEKDEFDMECRLQIQQYFKKFEFLENYEMERHNLSLKRFQSKSHRWSKILSNKNDNTKHVIHPQDIENGVYEFRLGVLRCLNLWIKYVSSKFTTIQQERLILENKMNFNSTPMPTLSNNADDFSADAIDISVSQSAPVETVQDEVKHYEETISKLTQEQLQVLETEHSELLNQKNEQLKKVETINKTILDIVNIQNELSNHLTVQSQNINLMLNNQDDIELNIKKGNKELRKAKRAAGRTAKMTTYGAIIMGVFILFLDYVG
For B1, which binding is on record?
Its binding is “binds”.
